PubChem BioAssay AID652272 – Drosophila RNAi Screening Center – 2013

- Aim: 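Genome-wide knock-down search for components of Hedgehog signalling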 (primary screen)
- Cell system: Drosophila clone 8 (Cl8) cells
- Reagents: long dsRNA against Drosophila genes
- Read-out: 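Plate reader light from a firefly reporter under a ptc promoter fragment that responds to Hedgehog, with Renilla light as transfection reference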
- Direction: firefly Hh reporter signal: higher = more ptc reporter light; Renilla reference signal: higher = more Renilla control light
- Call rule: 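Called a hit if the two-replicate mean z-score lies below -2 or above +3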
- Calls: active = hit: reporter lowered or raised; inactive = not a hit
The deposit covers about 21,000 reagents; this is an unselected part of those that have a named target and a result. Over the whole deposit, 503 (2.4%) were called active. 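Raw plate light values, not normalised; calls rest on replicate z-scores that were not deposited; hits include reporter decreases as well as increases.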 A plus sign joins genes that one reagent is predicted to hit. No sequences are given here. The record does not give: the amount of reagent, the time to read-out.

The first 3 records, to show the layout:
predicted target	dsRNA	firefly Hh reporter signal, replicate 1	firefly Hh reporter signal, replicate 2	Renilla reference signal, replicate 1	Renilla reference signal, replicate 2	activity call
mRpL11	DRSC15482	95820	90116	2705	2347	inactive
Rpn2	DRSC16839	36854	25546	1495	1557	active
CG42394 + CG6567	DRSC12821	4.69e5		10029		inactive

The listing, repeating the preview:
predicted target	dsRNA	firefly Hh reporter signal, replicate 1	firefly Hh reporter signal, replicate 2	Renilla reference signal, replicate 1	Renilla reference signal, replicate 2	activity call
mRpL11	DRSC15482	95820	90116	2705	2347	inactive
Rpn2	DRSC16839	36854	25546	1495	1557	active
CG42394 + CG6567	DRSC12821	4.69e5		10029		inactive
CG5539	DRSC04510	67666	51084	1888	4464	inactive
CG42329	DRSC00373	94744	1.07e5	2416	2712	inactive
CG42329	DRSC00682	1.07e5	64140	2388	1712	inactive
CG18586	DRSC10325	36264	77158	691	5581	inactive
CG9067	DRSC07328	1.51e5	65920	3897	5604	inactive
CG2186	DRSC19838	1.29e5	1.33e5	2471	2912	inactive
CG9372	DRSC11068	1.07e5	96740	3723	2810	inactive
CG2794	DRSC00534	1.09e5	1.11e5	2534	2585	inactive
Dfd	DRSC12593	71145	1.05e5	2965	3472	inactive
Dbx	DRSC08270	84708	40819	2848	3436	inactive
Dbx	DRSC08271	80075	61413	2954	3797	inactive
Dbx	DRSC08394	86266	45462	2778	3288	inactive
CG13631	DRSC14632	1.59e5	1.06e5	6982	4570	inactive
Tig	DRSC03456	48650	41581	1072	5317	inactive
Atg101	DRSC20020	44112	2.34e5	1208	9616	inactive
cype	DRSC02356	1.41e5	70083	3193	6384	inactive
Ubr3	DRSC17987	86944	57939	2096	1717	inactive
Ubr3	DRSC17997	78688	1.60e5	3096	6500	inactive
Mob2	DRSC09117	39472	1.26e5	1797	6416	active
Mob2	DRSC09119	1.09e5	2.47e5	3213	10037	inactive
Mob2	DRSC09856	1.03e5	67381	4513	2952	inactive
Kr-h1	DRSC00908	5.50e5	1.40e5	24077	5777	inactive
Kr-h1	DRSC03355	83312	38641	3425	1732	inactive
jbug	DRSC03952	1.24e5	2.53e5	3360	11693	inactive
jbug	DRSC04114	79629	48701	3436	1794	inactive
jbug	DRSC04167	1.04e5	81632	2114	7049	inactive
jbug	DRSC04388	83405	67373	2019	5244	inactive
SP2353	DRSC07545	55096	25800	1403	1824	inactive
JhI-21	DRSC02161	1.10e5	88993	4391	4168	inactive
CG31955	DRSC00285	2.31e5	88677	5098	8328	inactive
Syx18	DRSC14628	1.02e5	97587	4467	4411	inactive
CG11257	DRSC06068	79788	66583	2215	4647	inactive
CG17490	DRSC03794	1.54e5	1.90e5	4432	9160	inactive
CG17490	DRSC03797	76436	60131	2491	5606	inactive
CG12885	DRSC14572	69899	85277	1837	2155	inactive
CG40948 (retired record)	DRSC20944	4.72e5	1.62e5	27649	3234	inactive
CG3565	DRSC04389	75425	70025	3576	2971	inactive
CG13955	DRSC06443	1.60e5	1.09e5	3952	7600	inactive
CG13385	DRSC02259	1.18e5	60941	2474	5322	inactive
timeout	DRSC12950	46333	1.58e5	10406	3643	inactive
timeout	DRSC17078	70929	65011	2199	1948	inactive
timeout	DRSC17079	1.14e5	1.07e5	2983	2624	inactive
timeout	DRSC17080	79296	76976	2807	2230	inactive
timeout	DRSC17081	1.58e5	1.10e5	5206	2937	inactive
gogo	DRSC10070	83245	96464	3188	2726	inactive
gogo	DRSC10071	89014	86129	3108	2834	inactive
aurB	DRSC03548	34820	29051	2251	1844	inactive
CG8097	DRSC20079	61446	1.47e5	1825	6018	inactive
Cortactin	DRSC16612	1.48e5	88944	6192	3851	inactive
ND-39	DRSC11791	89136	81789	3264	2885	inactive
CG7173	DRSC11812	24640	46621	1813	2026	inactive
Rsf1	DRSC03423	1.05e5	60801	4160	6743	inactive
Doc3	DRSC10480	34059	65495	3574	4816	inactive
CG31815	DRSC01548	1.16e5	2.02e5	3475	8033	inactive
